Results from patent US9796671B2, “Aurora kinase inhibitors” (REGENTS OF THE UNIVERSITY OF MINNESOTA, priority 2012, dated 2017).
Some results were stated once for a whole list of compounds, not compound by compound.

Protein sequences, listed by entry. Tags and fused reporters are not part of them.
UniProt Q96GD4, whole entry: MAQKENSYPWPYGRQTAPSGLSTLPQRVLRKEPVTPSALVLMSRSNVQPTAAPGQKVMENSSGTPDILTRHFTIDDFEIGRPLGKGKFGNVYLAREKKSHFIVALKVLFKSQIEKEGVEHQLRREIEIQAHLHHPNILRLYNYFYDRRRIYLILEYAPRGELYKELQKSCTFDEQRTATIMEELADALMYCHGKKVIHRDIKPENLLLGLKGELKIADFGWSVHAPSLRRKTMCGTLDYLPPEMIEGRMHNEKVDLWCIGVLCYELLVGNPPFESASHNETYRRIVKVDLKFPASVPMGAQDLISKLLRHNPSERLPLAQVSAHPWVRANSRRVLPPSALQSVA

Assays:
Aurora B = Aurora B (Homo sapiens, UniProt Q96GD4); test: Aurora B in vitro kinase assay (histone H3 Ser10 phosphorylation, Western blot); format: biochemical; settings: histone 3.3 substrate, 100 μmol/L ATP
Description: Proteins are resolved by SDS-PAGE and transferred onto polyvinylidene difluoride membranes (Millipore, Mass.), which are blocked with nonfat milk and hybridized with specific primary antibodies. The protein bands are visualized using an enhanced chemiluminescence reagent (GE Healthcare, Pittsburgh, Pa.) after hybridization with a horseradish peroxidase-conjugated secondary antibody.
Reactions are carried out in 1× kinase buffer (25 mM Tris-HCl pH 7.5, 5 mM beta-glycerophosphate, 2 mM dithiothreitol (DTT), 0.1 mM Na3VO4, 10 mM MgCl2 and 5 mM MnCl2) containing 100 μM ATP at 30° C. for 30 minutes. Reactions are stopped and proteins detected by Western blotting.
An in vitro kinase assay was used to determine whether Compound 1 could inhibit Aurora B kinase activity using recombinant Aurora B protein and various concentrations of Compound 1. […] The effect of Compound 1 on Aurora A kinase activity using an in vitro kinase assay was also examined.

[1] = system: HCT116 colon cancer cells; test: Viability of colon cancer cells (MTS assay); format: cell-based; settings: At 5
HT29 colon cancer cells [2] = test: Viability of colon cancer cells (MTS assay); format: cell-based; settings: At 5
HT29 colon cancer cells [3] = test: Anchorage-independent growth (soft agar colony formation); format: cell-based; settings: 5 μM

## O=C(/C=C/c1ccc2c(c1)OCO2)/C=C1/C(=O)Nc2ccccc21 [Compound 1]
Aurora B
  Aurora B kinase activity in vitro (FIG. 1): inhibit
[1]
  viability of HCT116 colon cancer cells (FIG. 2): significant decrease
HT29 colon cancer cells [2]
  viability of HT29 colon cancer cells (FIG. 2): significant decrease
HT29 colon cancer cells [3]
  anchorage-independent growth of HT29 colon cancer cells: suppress

## O=C(/C=C/c1ccc2c(c1)OCO2)/C=C1/C(=O)Nc2ccc(Cl)cc21 [Compound 2]
Aurora B
  Aurora B kinase activity in vitro (FIG. 1): inhibit
[1]
  viability of HCT116 colon cancer cells (FIG. 2): significant decrease
HT29 colon cancer cells [2]
  viability of HT29 colon cancer cells (FIG. 2): significant decrease
HT29 colon cancer cells [3]
  anchorage-independent growth of HT29 colon cancer cells: suppress

## O=C(/C=C/c1ccc2c(c1)OCO2)/C=C1/C(=O)Nc2cc(Cl)ccc21 [Compound 3]
Aurora B
  Aurora B kinase activity in vitro (FIG. 1): inhibit
[1]
  viability of HCT116 colon cancer cells (FIG. 2): significant decrease
HT29 colon cancer cells [2]
  viability of HT29 colon cancer cells (FIG. 2): significant decrease
HT29 colon cancer cells [3]
  anchorage-independent growth of HT29 colon cancer cells: suppress

## O=C(/C=C/c1ccc2c(c1)OCO2)/C=C1/C(=O)Nc2cccc(Cl)c21 [Compound 4]
Aurora B
  Aurora B kinase activity in vitro (FIG. 1): inhibit
[1]
  viability of HCT116 colon cancer cells (FIG. 2): significant decrease
HT29 colon cancer cells [2]
  viability of HT29 colon cancer cells (FIG. 2): significant decrease
HT29 colon cancer cells [3]
  anchorage-independent growth of HT29 colon cancer cells: suppress

## COc1cc(/C=C/C(=O)/C=C2/C(=O)Nc3ccccc32)cc(OC)c1OC [Compound 5]
Aurora B
  Aurora B kinase activity in vitro (FIG. 1): inhibit
[1]
  viability of HCT116 colon cancer cells (FIG. 2): significant decrease
HT29 colon cancer cells [2]
  viability of HT29 colon cancer cells (FIG. 2): significant decrease
HT29 colon cancer cells [3]
  anchorage-independent growth of HT29 colon cancer cells: suppress

## O=C(/C=C/c1ccc2c(c1)OCO2)/C=C1/C(=O)Nc2ccc(F)cc21 [Compound 6]
Aurora B
  Aurora B kinase activity in vitro (FIG. 1): inhibit
[1]
  viability of HCT116 colon cancer cells (FIG. 2): significant decrease
HT29 colon cancer cells [2]
  viability of HT29 colon cancer cells (FIG. 2): significant decrease
HT29 colon cancer cells [3]
  anchorage-independent growth of HT29 colon cancer cells: suppress

## O=C(/C=C/c1ccc([N+](=O)[O-])cc1)/C=C1/C(=O)Nc2ccc(F)cc21 [Compound 7]
Aurora B
  Aurora B kinase activity in vitro (FIG. 1): inhibit
[1]
  viability of HCT116 colon cancer cells (FIG. 2): significant decrease
HT29 colon cancer cells [2]
  viability of HT29 colon cancer cells (FIG. 2): significant decrease
HT29 colon cancer cells [3]
  anchorage-independent growth of HT29 colon cancer cells: suppress

## COc1cc(/C=C/C(=O)/C=C2/C(=O)Nc3ccccc32)ccc1O [Compound 8]
Aurora B
  Aurora B kinase activity in vitro (FIG. 1): inhibit
[1]
  viability of HCT116 colon cancer cells (FIG. 2): significant decrease
HT29 colon cancer cells [2]
  viability of HT29 colon cancer cells (FIG. 2): significant decrease
HT29 colon cancer cells [3]
  anchorage-independent growth of HT29 colon cancer cells: suppress
